Results are given in words; binding and its absence hold for the method and conditions named. In cells and extracts the contact can be indirect. Some results given as binding are weak or reduced against the parent protein; the word gives no strength. Sequences can lack the tags named with a protein. Each block holds one binder with its values, some of them ahead of it.
Experiments:
[1] = molecular target: Nluc-STAT2 (human), P52630; test: FRET or BRET; settings: remark: other sources report otherwise
Nluc-p50 (human) = Nluc-p50 (human) (UniProt P19838); test: FRET or BRET

Protein sequences, listed by entry. Tags and fused reporters are not part of them. Residues count along the entry.
UniProt P19838, residues 1-433: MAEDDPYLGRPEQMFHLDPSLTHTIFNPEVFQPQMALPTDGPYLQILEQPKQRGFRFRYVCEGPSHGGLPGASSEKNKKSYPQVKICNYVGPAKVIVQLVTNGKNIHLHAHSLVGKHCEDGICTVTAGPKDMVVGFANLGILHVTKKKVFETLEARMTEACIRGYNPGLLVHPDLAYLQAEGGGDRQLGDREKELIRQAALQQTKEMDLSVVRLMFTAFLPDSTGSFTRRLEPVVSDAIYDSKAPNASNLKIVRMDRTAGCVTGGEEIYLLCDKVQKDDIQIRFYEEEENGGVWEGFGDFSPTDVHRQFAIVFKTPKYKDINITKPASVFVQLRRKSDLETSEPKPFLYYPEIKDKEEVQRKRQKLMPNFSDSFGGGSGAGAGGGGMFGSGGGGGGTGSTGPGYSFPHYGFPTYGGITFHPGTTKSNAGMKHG

- binding [1]: binds
B1: YFP-IRF9, Q00978 1-393 (protein)
chain: MASGRARCTRKLRNWVVEQVESGQFPGVCWDDTAKTMFRIPWKHAGKQDFREDQDAAFFKAWAIFKGKYKEGDTGGPAVWKTRLRCALNKSSEFKEVPERGRMDVAEPYKVYQLLPPGIVSGQPGTQKVPSKRQHSSVSSERKEEEDAMQNCTLSPSVLQDSLNNEEEGASGGAVHSDIGSSSSSSSPEPQEVTDTTEAPFQGDQRSLEFLLPPEPDYSLLLTFIYNGRVVGEAQVQSLDCRLVAEPSGSESSMEQVLFPKPGPLEPTQRLLSQLERGILVASNPRGLFVQRLCPIPISWNAPQAPPGPGPHLLPSNECVELFRTAYFCRDLVRYFQGLGPPPKFQVTLNFWEESHGSSHTPQNLITVKMEQAFARYLLEQTPEQQAAILSLV

- binding (Nluc-p50 (human)): no binding
B2: YFP-IRF9 (protein, UniProt Q00978 1-393)
chain: B1 chain
